For at least one entry, the source does not settle the construct or the ends of the probe. For some assays here: Where a protein sequence is shown, tags need not be part of it.
Assays:
Assay in all cases: protein microarray
Conditions in all cases: 10-fold cold unmethylated competitor; 5mC at CpG (SssI, both strands); recombinant protein; protein details: GST (N-terminal); label: Cy5
BCL3 (Homo sapiens) = biological target: T1, BCL3 (Homo sapiens) (UniProt P20749)
T1 sequence (looked up, limits assumed): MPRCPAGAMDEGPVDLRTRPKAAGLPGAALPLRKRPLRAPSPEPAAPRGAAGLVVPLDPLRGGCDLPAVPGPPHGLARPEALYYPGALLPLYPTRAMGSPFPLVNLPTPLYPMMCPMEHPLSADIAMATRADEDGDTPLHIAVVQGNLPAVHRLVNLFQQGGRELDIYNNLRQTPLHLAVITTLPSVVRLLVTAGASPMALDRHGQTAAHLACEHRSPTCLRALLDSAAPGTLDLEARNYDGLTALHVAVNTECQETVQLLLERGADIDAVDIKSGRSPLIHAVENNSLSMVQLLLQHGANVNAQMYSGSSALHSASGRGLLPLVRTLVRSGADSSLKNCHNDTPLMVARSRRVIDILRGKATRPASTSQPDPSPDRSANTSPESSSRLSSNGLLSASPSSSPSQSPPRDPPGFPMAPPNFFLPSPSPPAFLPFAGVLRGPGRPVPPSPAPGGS

Amino acid sequences for entries named in this document (tags omitted). A change or cut given only in a name is not applied to a line headed by its entry.
UniProt O00716: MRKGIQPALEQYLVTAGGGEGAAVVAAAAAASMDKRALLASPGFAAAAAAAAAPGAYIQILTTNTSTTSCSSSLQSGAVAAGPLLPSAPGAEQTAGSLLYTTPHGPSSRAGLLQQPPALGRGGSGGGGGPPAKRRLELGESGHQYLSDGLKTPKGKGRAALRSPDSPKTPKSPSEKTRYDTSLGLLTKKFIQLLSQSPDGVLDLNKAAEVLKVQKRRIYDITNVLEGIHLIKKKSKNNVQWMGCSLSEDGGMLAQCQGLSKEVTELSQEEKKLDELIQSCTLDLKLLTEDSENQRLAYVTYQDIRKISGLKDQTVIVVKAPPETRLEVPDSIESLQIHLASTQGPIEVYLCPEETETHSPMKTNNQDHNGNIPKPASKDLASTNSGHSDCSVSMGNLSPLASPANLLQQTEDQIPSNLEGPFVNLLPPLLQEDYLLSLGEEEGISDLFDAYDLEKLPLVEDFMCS
UniProt P23771: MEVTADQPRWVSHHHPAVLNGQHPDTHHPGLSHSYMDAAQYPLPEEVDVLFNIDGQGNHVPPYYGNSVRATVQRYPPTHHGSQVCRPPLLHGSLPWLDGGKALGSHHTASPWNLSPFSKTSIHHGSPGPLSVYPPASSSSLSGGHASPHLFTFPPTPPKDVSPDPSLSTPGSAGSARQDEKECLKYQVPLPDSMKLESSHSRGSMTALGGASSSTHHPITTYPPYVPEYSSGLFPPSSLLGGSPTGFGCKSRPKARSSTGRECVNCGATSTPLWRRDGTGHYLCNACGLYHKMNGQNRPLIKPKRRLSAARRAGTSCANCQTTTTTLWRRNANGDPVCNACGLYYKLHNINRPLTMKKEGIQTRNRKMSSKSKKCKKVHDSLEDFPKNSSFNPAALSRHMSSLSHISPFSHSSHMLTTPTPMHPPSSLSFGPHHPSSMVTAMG
UniProt P43694: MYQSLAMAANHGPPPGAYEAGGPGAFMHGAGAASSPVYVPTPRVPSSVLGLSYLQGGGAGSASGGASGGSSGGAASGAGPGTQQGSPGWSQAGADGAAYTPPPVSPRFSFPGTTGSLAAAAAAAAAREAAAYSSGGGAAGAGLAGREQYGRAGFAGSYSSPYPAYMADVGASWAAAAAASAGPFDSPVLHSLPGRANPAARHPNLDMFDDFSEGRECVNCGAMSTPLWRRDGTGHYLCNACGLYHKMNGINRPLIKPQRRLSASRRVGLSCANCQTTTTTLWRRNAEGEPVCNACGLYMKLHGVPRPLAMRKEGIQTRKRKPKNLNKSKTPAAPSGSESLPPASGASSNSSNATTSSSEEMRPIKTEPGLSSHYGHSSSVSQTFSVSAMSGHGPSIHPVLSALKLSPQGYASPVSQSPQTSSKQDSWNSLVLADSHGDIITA
UniProt P20719: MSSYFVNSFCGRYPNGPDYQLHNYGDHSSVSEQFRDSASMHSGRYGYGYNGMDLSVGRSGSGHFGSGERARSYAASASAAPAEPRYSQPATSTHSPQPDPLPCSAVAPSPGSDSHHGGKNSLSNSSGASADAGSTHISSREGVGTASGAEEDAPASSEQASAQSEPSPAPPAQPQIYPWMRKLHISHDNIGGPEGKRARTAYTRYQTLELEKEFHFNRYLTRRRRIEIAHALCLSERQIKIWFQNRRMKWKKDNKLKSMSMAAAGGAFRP
UniProt P37231: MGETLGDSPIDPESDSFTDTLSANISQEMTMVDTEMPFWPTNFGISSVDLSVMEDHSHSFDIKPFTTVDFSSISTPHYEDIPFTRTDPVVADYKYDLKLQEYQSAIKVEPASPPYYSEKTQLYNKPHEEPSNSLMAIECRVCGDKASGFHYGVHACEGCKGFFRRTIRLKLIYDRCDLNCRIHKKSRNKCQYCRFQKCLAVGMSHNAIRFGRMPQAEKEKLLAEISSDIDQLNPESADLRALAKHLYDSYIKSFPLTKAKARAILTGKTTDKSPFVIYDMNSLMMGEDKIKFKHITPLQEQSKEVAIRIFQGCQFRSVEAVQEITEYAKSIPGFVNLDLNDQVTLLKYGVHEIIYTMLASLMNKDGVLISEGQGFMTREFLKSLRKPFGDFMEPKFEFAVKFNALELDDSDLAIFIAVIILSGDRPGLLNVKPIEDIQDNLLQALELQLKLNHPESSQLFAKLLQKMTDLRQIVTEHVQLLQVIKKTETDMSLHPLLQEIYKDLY
UniProt P19793: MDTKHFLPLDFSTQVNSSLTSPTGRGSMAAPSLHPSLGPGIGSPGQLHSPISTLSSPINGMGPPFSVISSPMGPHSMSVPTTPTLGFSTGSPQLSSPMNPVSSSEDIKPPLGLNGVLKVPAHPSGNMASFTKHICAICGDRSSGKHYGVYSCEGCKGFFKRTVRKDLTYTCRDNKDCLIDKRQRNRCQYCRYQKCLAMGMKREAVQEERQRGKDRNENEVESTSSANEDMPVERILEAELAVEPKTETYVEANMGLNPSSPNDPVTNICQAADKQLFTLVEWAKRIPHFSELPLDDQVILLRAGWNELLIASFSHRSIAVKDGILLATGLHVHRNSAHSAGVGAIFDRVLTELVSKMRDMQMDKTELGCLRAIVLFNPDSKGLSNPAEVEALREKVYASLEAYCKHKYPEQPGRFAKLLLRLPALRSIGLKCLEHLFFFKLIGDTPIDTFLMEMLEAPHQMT
UniProt Q08945, whole entry: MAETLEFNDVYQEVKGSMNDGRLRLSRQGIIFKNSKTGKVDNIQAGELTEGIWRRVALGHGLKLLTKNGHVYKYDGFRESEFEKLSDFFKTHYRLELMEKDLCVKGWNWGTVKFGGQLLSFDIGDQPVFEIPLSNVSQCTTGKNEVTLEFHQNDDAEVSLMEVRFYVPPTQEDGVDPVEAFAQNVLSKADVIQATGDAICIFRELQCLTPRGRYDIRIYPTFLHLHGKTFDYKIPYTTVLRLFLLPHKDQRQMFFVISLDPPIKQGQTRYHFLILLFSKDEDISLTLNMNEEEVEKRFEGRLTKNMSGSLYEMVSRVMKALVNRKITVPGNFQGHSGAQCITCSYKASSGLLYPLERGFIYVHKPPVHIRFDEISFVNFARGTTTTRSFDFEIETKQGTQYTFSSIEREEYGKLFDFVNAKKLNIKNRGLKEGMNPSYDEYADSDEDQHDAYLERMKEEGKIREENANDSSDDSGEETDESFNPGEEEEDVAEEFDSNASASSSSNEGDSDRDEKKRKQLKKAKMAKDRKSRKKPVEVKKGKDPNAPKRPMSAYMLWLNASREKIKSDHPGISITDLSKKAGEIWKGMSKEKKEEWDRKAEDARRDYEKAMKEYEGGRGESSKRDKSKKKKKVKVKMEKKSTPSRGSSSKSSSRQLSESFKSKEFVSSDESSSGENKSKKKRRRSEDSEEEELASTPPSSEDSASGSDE
UniProt Q8NC26: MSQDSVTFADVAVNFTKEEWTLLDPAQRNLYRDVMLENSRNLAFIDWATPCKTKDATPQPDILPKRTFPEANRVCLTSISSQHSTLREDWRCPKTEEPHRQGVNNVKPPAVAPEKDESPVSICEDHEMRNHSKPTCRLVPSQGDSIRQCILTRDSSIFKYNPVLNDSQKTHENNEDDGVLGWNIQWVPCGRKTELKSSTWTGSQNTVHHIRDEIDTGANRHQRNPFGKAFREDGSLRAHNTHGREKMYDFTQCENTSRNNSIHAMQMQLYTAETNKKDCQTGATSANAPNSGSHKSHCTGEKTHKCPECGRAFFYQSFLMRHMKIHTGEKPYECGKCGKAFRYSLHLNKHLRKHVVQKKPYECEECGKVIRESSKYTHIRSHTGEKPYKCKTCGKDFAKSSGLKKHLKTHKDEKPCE
UniProt Q9BWM5: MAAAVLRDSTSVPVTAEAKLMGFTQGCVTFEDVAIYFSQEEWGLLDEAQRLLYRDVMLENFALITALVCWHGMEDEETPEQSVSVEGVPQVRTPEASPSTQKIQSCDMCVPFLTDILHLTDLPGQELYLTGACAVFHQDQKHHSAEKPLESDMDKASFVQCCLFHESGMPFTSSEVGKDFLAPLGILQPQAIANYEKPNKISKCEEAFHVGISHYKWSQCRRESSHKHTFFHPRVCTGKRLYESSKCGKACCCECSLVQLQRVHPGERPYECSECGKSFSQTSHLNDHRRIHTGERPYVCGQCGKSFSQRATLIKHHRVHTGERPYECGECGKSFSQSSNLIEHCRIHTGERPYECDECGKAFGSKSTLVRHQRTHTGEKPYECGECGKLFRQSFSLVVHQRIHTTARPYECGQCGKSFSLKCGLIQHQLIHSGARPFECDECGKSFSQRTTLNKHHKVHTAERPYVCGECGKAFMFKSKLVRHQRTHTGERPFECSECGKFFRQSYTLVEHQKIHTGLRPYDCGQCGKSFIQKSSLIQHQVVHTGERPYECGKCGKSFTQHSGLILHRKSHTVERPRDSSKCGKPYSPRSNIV
UniProt Q8IW36: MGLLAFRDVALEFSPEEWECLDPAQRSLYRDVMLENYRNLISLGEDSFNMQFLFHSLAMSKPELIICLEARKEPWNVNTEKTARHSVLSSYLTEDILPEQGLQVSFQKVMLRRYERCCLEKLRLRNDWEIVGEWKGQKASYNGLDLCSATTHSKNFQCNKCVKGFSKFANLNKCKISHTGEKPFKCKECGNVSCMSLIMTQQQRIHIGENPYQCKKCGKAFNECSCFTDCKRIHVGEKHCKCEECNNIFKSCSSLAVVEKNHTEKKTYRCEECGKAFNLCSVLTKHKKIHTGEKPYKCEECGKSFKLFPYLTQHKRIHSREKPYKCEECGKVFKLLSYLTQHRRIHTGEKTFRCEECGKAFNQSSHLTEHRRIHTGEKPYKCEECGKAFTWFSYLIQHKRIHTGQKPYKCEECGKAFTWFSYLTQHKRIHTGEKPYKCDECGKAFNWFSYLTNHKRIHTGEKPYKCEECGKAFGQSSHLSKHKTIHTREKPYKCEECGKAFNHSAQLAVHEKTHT
UniProt P05549: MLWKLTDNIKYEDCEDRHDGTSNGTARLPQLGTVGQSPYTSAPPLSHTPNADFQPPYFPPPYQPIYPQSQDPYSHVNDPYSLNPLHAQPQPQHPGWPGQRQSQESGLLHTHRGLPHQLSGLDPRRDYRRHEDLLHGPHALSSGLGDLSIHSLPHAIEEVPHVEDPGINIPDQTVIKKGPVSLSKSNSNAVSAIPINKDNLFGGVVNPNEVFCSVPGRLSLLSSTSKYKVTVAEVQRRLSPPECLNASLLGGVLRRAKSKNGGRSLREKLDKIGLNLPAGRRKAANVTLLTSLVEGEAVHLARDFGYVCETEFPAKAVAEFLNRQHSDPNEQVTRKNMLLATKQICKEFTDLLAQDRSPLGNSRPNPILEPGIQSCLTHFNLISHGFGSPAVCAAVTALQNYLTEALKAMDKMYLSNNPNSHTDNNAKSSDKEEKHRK

E2F3 (Homo sapiens) = E2F3 (Homo sapiens) (UniProt O00716)
GATA3 (Homo sapiens) = GATA3 (Homo sapiens) (UniProt P23771)
GATA4 (Homo sapiens) = GATA4 (Homo sapiens) (UniProt P43694)
HOXA5 (Homo sapiens) = HOXA5 (Homo sapiens) (UniProt P20719)
PPARG (Homo sapiens) = PPARG (Homo sapiens) (UniProt P37231)
RNF138 (Homo sapiens) = biological target: T2, RNF138 (Homo sapiens) (UniProt Q8WVD3)
T2 sequence (looked up, limits assumed): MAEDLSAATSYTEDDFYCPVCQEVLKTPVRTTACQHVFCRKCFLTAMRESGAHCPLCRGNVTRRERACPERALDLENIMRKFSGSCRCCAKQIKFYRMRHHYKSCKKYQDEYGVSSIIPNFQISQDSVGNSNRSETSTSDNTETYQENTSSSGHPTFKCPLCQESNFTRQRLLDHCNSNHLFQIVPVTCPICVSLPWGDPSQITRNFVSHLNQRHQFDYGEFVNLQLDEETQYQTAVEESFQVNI

RXRA (Homo sapiens) = RXRA (Homo sapiens) (UniProt P19793)
SCAPER (Homo sapiens) = biological target: T3, SCAPER (Homo sapiens) (UniProt Q9BY12)
T3 sequence (looked up, limits assumed): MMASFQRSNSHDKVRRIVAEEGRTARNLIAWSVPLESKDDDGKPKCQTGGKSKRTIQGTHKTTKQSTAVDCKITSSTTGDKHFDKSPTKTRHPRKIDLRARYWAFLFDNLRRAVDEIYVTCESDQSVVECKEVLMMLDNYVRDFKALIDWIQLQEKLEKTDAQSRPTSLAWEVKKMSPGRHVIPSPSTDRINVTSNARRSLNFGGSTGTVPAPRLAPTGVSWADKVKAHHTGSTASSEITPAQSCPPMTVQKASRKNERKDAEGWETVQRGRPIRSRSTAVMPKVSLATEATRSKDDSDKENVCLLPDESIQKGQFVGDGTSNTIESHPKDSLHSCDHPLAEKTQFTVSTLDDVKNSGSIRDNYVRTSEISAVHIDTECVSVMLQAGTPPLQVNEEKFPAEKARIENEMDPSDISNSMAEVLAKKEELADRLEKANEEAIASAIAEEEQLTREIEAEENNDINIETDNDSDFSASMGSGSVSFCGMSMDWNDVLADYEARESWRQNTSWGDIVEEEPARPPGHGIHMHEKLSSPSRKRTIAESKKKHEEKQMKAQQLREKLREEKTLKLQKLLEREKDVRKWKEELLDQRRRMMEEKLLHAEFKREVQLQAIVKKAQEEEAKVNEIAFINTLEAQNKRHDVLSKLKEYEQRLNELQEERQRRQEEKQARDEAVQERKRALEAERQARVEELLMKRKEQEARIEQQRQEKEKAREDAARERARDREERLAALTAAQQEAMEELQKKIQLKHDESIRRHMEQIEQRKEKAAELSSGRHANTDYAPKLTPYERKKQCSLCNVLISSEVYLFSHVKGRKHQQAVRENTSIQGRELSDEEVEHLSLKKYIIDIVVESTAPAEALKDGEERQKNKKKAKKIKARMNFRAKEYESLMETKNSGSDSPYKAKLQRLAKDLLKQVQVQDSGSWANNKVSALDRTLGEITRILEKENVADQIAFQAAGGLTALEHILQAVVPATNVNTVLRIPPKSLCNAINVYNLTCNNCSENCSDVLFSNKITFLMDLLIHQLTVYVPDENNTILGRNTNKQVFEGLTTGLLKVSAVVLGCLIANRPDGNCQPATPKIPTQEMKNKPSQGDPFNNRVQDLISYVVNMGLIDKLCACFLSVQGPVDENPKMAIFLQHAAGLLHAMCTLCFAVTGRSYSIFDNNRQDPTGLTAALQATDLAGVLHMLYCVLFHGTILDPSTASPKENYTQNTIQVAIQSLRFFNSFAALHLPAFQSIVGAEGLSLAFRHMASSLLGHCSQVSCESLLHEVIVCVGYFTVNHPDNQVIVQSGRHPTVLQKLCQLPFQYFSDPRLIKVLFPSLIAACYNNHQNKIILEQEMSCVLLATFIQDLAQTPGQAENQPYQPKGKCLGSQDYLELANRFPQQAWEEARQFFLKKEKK

SMAD4 (Homo sapiens) = biological target: T4, SMAD4 (Homo sapiens) (UniProt Q13485)
T4 sequence (looked up, limits assumed): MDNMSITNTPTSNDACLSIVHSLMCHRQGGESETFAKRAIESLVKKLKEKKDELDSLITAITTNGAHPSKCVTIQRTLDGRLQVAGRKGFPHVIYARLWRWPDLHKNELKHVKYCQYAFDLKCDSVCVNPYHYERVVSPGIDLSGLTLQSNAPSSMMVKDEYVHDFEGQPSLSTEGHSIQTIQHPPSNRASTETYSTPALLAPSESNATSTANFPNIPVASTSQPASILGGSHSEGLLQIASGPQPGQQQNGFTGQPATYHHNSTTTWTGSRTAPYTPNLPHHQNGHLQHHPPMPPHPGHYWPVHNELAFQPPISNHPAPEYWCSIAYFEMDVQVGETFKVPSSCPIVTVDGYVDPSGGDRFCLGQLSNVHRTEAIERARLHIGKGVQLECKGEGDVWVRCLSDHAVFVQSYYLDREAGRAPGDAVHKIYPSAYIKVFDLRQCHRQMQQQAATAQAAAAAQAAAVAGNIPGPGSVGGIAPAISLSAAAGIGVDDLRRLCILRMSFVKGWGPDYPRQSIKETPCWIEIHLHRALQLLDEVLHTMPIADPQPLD

SSRP1 (Homo sapiens) = SSRP1 (Homo sapiens) (UniProt Q08945)
ZCCHC7 (Homo sapiens) = biological target: T5, ZCCHC7 (Homo sapiens) (UniProt Q8N3Z6)
T5 sequence (looked up, limits assumed): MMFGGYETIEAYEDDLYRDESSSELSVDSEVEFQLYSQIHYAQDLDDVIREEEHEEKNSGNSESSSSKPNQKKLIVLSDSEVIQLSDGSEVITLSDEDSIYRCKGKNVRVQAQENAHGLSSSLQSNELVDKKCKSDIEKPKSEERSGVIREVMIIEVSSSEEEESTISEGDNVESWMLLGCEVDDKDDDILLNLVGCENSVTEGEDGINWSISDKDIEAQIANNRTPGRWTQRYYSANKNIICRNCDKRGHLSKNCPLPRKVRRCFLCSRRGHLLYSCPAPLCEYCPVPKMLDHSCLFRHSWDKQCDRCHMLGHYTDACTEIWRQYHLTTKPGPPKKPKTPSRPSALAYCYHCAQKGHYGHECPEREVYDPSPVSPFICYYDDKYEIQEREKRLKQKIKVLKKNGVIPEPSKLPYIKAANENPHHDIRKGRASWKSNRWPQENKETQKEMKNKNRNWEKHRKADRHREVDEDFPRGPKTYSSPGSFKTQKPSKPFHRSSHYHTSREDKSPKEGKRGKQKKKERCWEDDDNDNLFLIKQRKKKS

ZNF114 (Homo sapiens) = ZNF114 (Homo sapiens) (UniProt Q8NC26)
ZNF416 (Homo sapiens) = ZNF416 (Homo sapiens) (UniProt Q9BWM5)
ZNF695 (Homo sapiens) = ZNF695 (Homo sapiens) (UniProt Q8IW36)
NRF1 (Homo sapiens) = biological target: T6, NRF1 (Homo sapiens) (UniProt Q16656)
T6 sequence (looked up, limits assumed): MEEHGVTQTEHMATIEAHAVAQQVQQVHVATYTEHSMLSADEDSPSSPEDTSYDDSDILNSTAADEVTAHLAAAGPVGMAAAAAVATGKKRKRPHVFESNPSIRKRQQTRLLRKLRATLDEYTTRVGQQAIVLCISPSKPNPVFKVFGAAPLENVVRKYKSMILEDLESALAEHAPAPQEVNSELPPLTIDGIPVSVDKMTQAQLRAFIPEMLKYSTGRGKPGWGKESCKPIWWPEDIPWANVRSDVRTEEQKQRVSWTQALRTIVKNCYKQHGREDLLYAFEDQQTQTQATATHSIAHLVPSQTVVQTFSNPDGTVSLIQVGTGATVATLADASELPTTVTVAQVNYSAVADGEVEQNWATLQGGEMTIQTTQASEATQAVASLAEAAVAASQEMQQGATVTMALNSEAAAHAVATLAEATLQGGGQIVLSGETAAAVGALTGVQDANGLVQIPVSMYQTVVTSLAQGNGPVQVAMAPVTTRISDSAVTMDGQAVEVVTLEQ

TFAP2A (Homo sapiens) = TFAP2A (Homo sapiens) (UniProt P05549)

Measured: binding result

CCCGCTCAAACCCGCTCCCCTATAGTGAGTGCTATTA (double strand) [M300]
not listed: NRF1 (Homo sapiens) | TFAP2A (Homo sapiens)
binds: all other assays above

GCCTCGCAAAGCCTCGCCCCTATAGTGAGTGCTATTA (double strand) [M311]
not listed: SSRP1 (Homo sapiens) | NRF1 (Homo sapiens) | TFAP2A (Homo sapiens)
binds: all other assays above

ACCCCGCAAAACCCCGCCCCTATAGTGAGTGCTATTA (double strand) [M317]
not listed: GATA3 (Homo sapiens) | NRF1 (Homo sapiens) | TFAP2A (Homo sapiens)
binds: all other assays above

TGACGCATTTTGACGCACCCTATAGTGAGTGCTATTA (double strand) [M312]
not listed: GATA3 (Homo sapiens) | NRF1 (Homo sapiens) | TFAP2A (Homo sapiens)
binds: all other assays above

TGGGCGCTTTTGGGCGCCCCTATAGTGAGTGCTATTA (double strand) [M315]
not listed: GATA3 (Homo sapiens) | NRF1 (Homo sapiens) | TFAP2A (Homo sapiens)
binds: all other assays above

TTCCCGAGGGTTTTTCCCGAGGGCCCTATAGTGAGTGCTATTA (double strand) [M380]
not listed: BCL3 (Homo sapiens) | SSRP1 (Homo sapiens)
binds: all other assays above
